1 molecule from US20240279324A1 can be followed below.

Sequences of proteins named here, by UniProt entry; tags and fusion partners are left off. Residues count along the entry.
UniProt O15123, residues 19-496: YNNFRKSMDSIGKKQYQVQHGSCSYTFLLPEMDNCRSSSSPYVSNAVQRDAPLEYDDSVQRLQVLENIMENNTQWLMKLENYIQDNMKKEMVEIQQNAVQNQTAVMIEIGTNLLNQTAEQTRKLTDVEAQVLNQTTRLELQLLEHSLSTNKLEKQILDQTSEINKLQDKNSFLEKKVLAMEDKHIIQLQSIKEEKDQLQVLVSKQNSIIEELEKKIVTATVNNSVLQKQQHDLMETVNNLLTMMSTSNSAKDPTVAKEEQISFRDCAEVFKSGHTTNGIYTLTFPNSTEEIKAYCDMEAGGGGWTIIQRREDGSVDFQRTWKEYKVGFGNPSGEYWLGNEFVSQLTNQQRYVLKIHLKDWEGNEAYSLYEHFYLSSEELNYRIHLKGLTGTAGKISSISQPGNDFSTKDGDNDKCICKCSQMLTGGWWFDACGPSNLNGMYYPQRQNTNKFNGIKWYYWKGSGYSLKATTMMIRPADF

No constants are given. Whether binding was seen depends on the method and setting. Some binding calls cover weakened binding; strength is not graded here.

This test addresses recombinant human Ang2 (human) (UniProt O15123). In words: Tie2-Ang2 blocking ELISA, Ang2 coated, Tie2 as competitor (FIG. 40 panel B).

B1: bispecific molecule Bi-ZT0 (Fc fusion)
chain: SDTGRPFVEMYSEIPEIIHMTEGRELVIPCRVTSPNITVTLKKFPLDTLIPDGKRIIWDSRKGFIISNATYKEIGLLTCEATVNGHLYKTNYLTHRQTNTIIDVVLSPSHGIELSVGEKLVLNCTARTELNVGIDFNWEYPSSKHQHKKLVNRDLKTQSGSEMKKFLSTLTIDGVTRSDQGLYTCAASSGLMTKKNSTFVRVHEKESKYGPPCPPCPAPEFLGGPSVFLFPPKPKDTLMISRTPEVTCVVVDVSQEDPEVQFNWYVDGVEVHNAKTKPREEQFNSTYRVVSVLTVLHQDWLNGKEYKCKVSNKGLPSSIEKTISKAKGQPREPQVYTLPPSQEEMGGAQQEECEWDPWTCEHMGSGSATGGSGSTASSGSGSATHQEECEWDPWTCEHMGGTKNQVSLTCLVKGFYPSDIAVEWESNGQPENNYKTTPPVLDSDGSFFLYSRLTVDKSRWQEGNVFSCSVMHEALHNHYTQKSLSLSLGK
On to B1, for which the binding entry is reported as “binds”.
